No constants are given. Whether binding was seen depends on the method and setting. Binding seen in cells or lysates may run through a third protein. Some binding calls cover weakened binding; strength is not graded here.
How the values were obtained:
[1] = biological target: RCSA NanoBiT fusion (assay of Figure S3D) (Salmonella typhimurium) (UniProt P54698); test: split reporter; SmBiT and LgBiT fused to bait and prey; expressed in the strains; bioluminescence after addition of the substrate (Figure S3D)
[2] = biological target: RCSA with a Myc-tag (RCSA-Myc) (Salmonella typhimurium) (UniProt P54698); test: co-IP; lysates (lysozyme, 1% Triton X-100, proteinase inhibitor) of strains carrying plasmids for RCSA-Myc, HTRA-His or both; overnight at 4 °C with protein A/G agarose beads and His-tag or Myc-tag antibodies; eluted with 0.1 M glycine pH 3.0; western blot

Row | Substance | binding [1] | binding [2]
1 | HTRA NanoBiT fusion (assay of Figure S3D) (from UniProt P26982 27-475) (enzyme) | binds | –
2 | HTRA with a His-tag (HTRA-His) (from UniProt P26982 27-475) (enzyme) | – | binds

Reference: publication PMC11423194
